Record: PubChem BioAssay AID743454 (Peter MacCallum Cancer Centre, 2014)

Test: 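Genes whose loss kills vorinostat-resistant colon cancer cells under vorinostat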 (primary screen)
System: human HCT116-VR colon cancer cells, selected for vorinostat resistance
Knock-down reagent: siRNA pool against human genes, 40 nM siRNA pool
Duration: vorinostat for 24 h, read-out about 72 h after transfection
Conditions: vorinostat at 2.5 µM final
Measured: 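Two measures, CellTiter-Fluor viability and luminescent caspase 3/7 activity, each as fold change against same-plate mock wells, mean of duplicates, then screen-wide robust z-score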
Direction: viability robust z-score: higher = more viable cells than screen typical; caspase robust z-score: higher = more caspase 3/7 activity than screen typical
Hit rule: 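a knock-down is a hit when classed RV1 or RV2 for lowered viability, or CA1 or CA2 for caspase activation; those lethal without drug were dropped; hits were retested singly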
In all, the deposit lists about 18,000 reagents; shown is a part drawn at random. 450 of all reagents (2.5%) were called active. 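Single biological run; no consistent viability z cut-off exists, so the class columns, not z-scores, define the calls.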

For CMTR1 (cap methyltransferase 1), what was measured?
viability hit class: no change; caspase hit class: no change; viability robust z-score: -0.58; caspase robust z-score: -0.65; Outcome: inactive

What did the screen give for GTF2A1L (general transcription factor IIA subunit 1 like)?
viability hit class: no change; caspase hit class: no change; viability robust z-score: 0.56; caspase robust z-score: -0.71; Outcome: inactive

What is on record for TGS1 (trimethylguanosine synthase 1)?
viability hit class: no change; caspase hit class: no change; viability robust z-score: -0.2; caspase robust z-score: -0.52; Outcome: inactive

With KLHL2 (kelch like family member 2), how do the results read?
viability hit class: no change; caspase hit class: no change; viability robust z-score: 0.26; caspase robust z-score: -0.18; Outcome: inactive

With MDFI (MyoD family inhibitor), what was measured?
viability hit class: no change; caspase hit class: no change; viability robust z-score: 1.23; caspase robust z-score: 0; Outcome: inactive

What did the screen give for ESRP2 (epithelial splicing regulatory protein 2)?
viability hit class: no change; caspase hit class: no change; viability robust z-score: -0.72; caspase robust z-score: 0.72; Outcome: inactive

With ETV3 (ETS variant transcription factor 3), how do the results read?
viability hit class: no change; caspase hit class: no change; viability robust z-score: -2.53; caspase robust z-score: -0.88; Outcome: inactive

What did the screen give for DLK2 (delta like non-canonical Notch ligand 2)?
viability hit class: no change; caspase hit class: no change; viability robust z-score: -1.27; caspase robust z-score: 1.15; Outcome: inactive

With UPRT (uracil phosphoribosyltransferase homolog), what does the deposit list?
viability hit class: no change; caspase hit class: no change; viability robust z-score: 0.11; caspase robust z-score: -0.36; Outcome: inactive

Which result is listed for SSR1 (signal sequence receptor subunit 1)?
viability hit class: no change; caspase hit class: no change; viability robust z-score: 0.72; caspase robust z-score: -0.11; Outcome: inactive

How did the screen score PADI3 (peptidyl arginine deiminase 3)?
viability hit class: no change; caspase hit class: no change; viability robust z-score: 0.61; caspase robust z-score: 1.66; Outcome: inactive

A stretch taken from the entries so far, for reference:
MDFI (MyoD family inhibitor): viability hit class = no change; caspase hit class = no change; viability robust z-score = 1.23; caspase robust z-score = 0; Outcome = inactive
ESRP2 (epithelial splicing regulatory protein 2): viability hit class = no change; caspase hit class = no change; viability robust z-score = -0.72; caspase robust z-score = 0.72; Outcome = inactive

Further records follow:
Which result is listed for P2RY13 (purinergic receptor P2Y13)?
viability hit class: no change; caspase hit class: no change; viability robust z-score: 0.25; caspase robust z-score: -0.8; Outcome: inactive

For TFDP2 (transcription factor Dp-2), how do the results read?
viability hit class: no change; caspase hit class: no change; viability robust z-score: 2.03; caspase robust z-score: -0.65; Outcome: inactive

For MANBAL (mannosidase beta like), how do the results read?
viability hit class: no change; caspase hit class: no change; viability robust z-score: 0.4; caspase robust z-score: 0.97; Outcome: inactive

What is on record for ELK3 (ETS transcription factor ELK3)?
viability hit class: no change; caspase hit class: no change; viability robust z-score: 0.16; caspase robust z-score: -1.06; Outcome: inactive

For C19orf48P (chromosome 19 open reading frame 48, pseudogene), what does the deposit list?
viability hit class: no change; caspase hit class: no change; viability robust z-score: -0.09; caspase robust z-score: 1.24; Outcome: inactive

With CABP7 (calcium binding protein 7), what was measured?
viability hit class: no change; caspase hit class: no change; viability robust z-score: 0.18; caspase robust z-score: 0.06; Outcome: inactive

Which result is listed for SLC25A20?
viability hit class: no change; caspase hit class: no change; viability robust z-score: -0.21; caspase robust z-score: -0.47; Outcome: inactive

Which result is listed for ETNK2 (ethanolamine kinase 2)?
viability hit class: no change; caspase hit class: no change; viability robust z-score: -1.82; caspase robust z-score: -1.37; Outcome: inactive

With CRELD2 (CRELD disulfide isomerase 2), what was measured?
viability hit class: no change; caspase hit class: no change; viability robust z-score: 0.45; caspase robust z-score: -0.84; Outcome: inactive

For AHNAK (AHNAK nucleoprotein), what does the deposit list?
viability hit class: no change; caspase hit class: no change; viability robust z-score: -1.1; caspase robust z-score: 2.02; Outcome: inactive
